# Data as given in PubChem BioAssay AID504842 (National Center for Advancing Translational Sciences (NCATS), 2011).
# Screen size: about 330,000 compounds; about 100 (0.03%) were called active. The inconclusive results got no clear call from the source; some entries with a clear call stand among them for comparison. The call rests on the fitted dose curve; in most records, active means well fitted inhibition curve with a large enough effect; inconclusive means small, poorly fitted or top-dose-only effect; inactive means flat fitted curve, though single readings scatter. Where the call is inconclusive, the potency comes from a doubtful curve fit.
# System: Chaperonin Mm-Cpn (Methanococcus maripaludis)
# Test: Inhibitors of TCP-1 ring complex (TRiC) of Methanococcus maripaludis (MmCpn): qHTS; further: nearly all actives have a fitted effect of over 80% in size;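 on potency: enzyme at 25 nM with ATP substrate at 10 µM during the reaction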
# Settings: purified Mm-Cpn ATPase, ADP Transcreener TR-FRET
# Method in brief: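 TR-FRET (320 nm excitation; 590 and 665 nm emission) reports ADP made from 10 uM ATP by 25 nM enzyme; compounds were preincubated 10 min, reaction run 30 min, both at 37°C.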
# Potency means the concentration at half of the fitted maximal effect.
row,Compound,Potency
1,COc1ccc2sc(-c3ccccc3OC)c(C#CC(C)(C)O)c2c1,"inconclusive: 79.4 µM [inhibitor, partial curve]"
2,Cc1nn(C(C)C(=O)Nc2ccc3c(c2)OCO3)c(C)c1[N+](=O)[O-] (centres undefined),inactive
3,CCOC(=O)c1cnc2c(OC)cccc2c1N1CCN(c2ccccc2OC)CC1,inactive
4,CCOC(=O)c1c(NC(=O)c2cccs2)sc2c1CCC2,"inconclusive: 56.2 µM [inhibitor, single point]"
5,O=C(OCn1ncc(Cl)c(Cl)c1=O)c1ccc(F)cc1,"inconclusive: 112 µM [inhibitor, single point]"
6,COc1ccc(-c2nc(SC)n(S(=O)(=O)c3ccccc3)n2)cc1,"inconclusive: 22.4 µM [inhibitor, single point]"
7,CCOc1ccc(NC(=O)NNC(=O)c2ccc(CC)s2)cc1,"inconclusive: 20 µM [inhibitor, partial curve, poor fit]"
8,CCOC(=O)N1CCN(c2c(NCCc3ccccc3)c(=O)c2=O)CC1,inactive
9,O=C(NCCc1ccco1)C(=O)NCC1OCCCN1S(=O)(=O)c1cc(F)ccc1F (centres undefined),"inconclusive: 251 µM [inhibitor, partial curve, poor fit]"
10,Cc1nn(CC(=O)Nc2ccccn2)c(C)c1Br,"inconclusive: 282 µM [inhibitor, partial curve, poor fit]"
11,OCCCNc1nc(-c2ccc(Cl)cc2)nnc1-c1ccc(Br)cc1,"inconclusive: 158 µM [inhibitor, partial curve, poor fit]"
12,COc1ccc(OC)c2c1sc(=NC(=O)C1CCCCC1)n2C,"inconclusive: 22.4 µM [inhibitor, single point]"
13,Cc1cc(C)cc(OCCNC(=O)C(C)N2C(=O)c3ccccc3C2=O)c1 (centres undefined),"inconclusive: 100 µM [inhibitor, partial curve, poor fit]"
14,c1ccc2c(CCNc3ncnc4nc[nH]c34)c[nH]c2c1,inactive
15,Cc1ccccc1OCC(=O)Nc1ccc(N2CCN(C)CC2)c(Cl)c1,"inconclusive: 44.7 µM [inhibitor, single point]"
16,COc1ccccc1NC(=O)C(=O)N/N=C/c1ccc([N+](=O)[O-])s1,inactive
17,CC1CCN(C(=O)c2cc(-c3ccco3)on2)CC1,"inconclusive: 100 µM [inhibitor, single point]"
18,COc1c(F)c(F)cc2c(=O)c(C(=O)O)cn(C3CC3)c12,"inconclusive: 79.4 µM [inhibitor, single point]"
19,Cc1cccn2c(=O)nc(SCC(=O)NCc3ccc(F)cc3)nc12,"inconclusive: 89.1 µM [inhibitor, single point]"
